Holding throughout (assay): DAPPL (digital affinity profiling via proximity ligation, sequencing)
Conditions in all cases: 10 mM Tris-HCl pH 7.5, 50 mM NaCl, 1 mM DTT, 4% glycerol, room temperature, 30 min; GST-TFs on glutathione beads, 16-mer random dsDNA library, 0.1% …; high values mean tight binding; double strand, one strand shown; scale: fold enrichment (6-mer frequency, TF over GST control)

Amino acid sequences for entries named in this document (tags omitted). A change or cut given only in a name is not applied to a line headed by its entry.
UniProt O43186: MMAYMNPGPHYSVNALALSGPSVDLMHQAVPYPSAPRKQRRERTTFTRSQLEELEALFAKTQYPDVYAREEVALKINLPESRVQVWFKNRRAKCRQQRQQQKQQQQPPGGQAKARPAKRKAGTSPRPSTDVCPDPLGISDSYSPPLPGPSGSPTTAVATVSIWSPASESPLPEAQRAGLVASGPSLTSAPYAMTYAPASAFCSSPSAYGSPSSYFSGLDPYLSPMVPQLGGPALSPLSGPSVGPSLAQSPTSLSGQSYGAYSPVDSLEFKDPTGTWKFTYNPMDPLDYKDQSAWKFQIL

One experiment has as its target T1, FEV (UniProt Q99581).
T1 sequence: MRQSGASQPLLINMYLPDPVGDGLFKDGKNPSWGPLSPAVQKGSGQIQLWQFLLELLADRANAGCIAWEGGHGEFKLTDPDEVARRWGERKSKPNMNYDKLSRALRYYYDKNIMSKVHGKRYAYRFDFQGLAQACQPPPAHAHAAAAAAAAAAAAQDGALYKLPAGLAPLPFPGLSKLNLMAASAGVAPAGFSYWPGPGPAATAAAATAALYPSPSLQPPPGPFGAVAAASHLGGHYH

The next experiment has as its target CRX (UniProt O43186).
A further experiment addresses T2, ELF5 (UniProt Q9UKW6-2).
T2 sequence: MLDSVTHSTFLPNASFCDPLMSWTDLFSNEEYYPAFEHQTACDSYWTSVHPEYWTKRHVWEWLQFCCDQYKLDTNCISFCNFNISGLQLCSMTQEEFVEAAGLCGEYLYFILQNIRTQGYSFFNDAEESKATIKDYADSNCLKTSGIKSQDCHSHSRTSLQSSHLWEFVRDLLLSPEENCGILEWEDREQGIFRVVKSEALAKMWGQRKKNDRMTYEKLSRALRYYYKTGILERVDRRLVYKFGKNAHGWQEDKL

This is a selection; strong and weak results do not stand in their true shares. At the low end of the ranking the order means little.

In the case of GCACGA, the binding signal with FEV is 1.09; with CRX, 0.868; with ELF5 it was 0.985.

For the sequence GTATGT, the binding signal was 0.942 in the experiment with FEV, 0.683 with CRX and 0.96 in the experiment with ELF5.

In the case of CCCGGT, the results for the binding signal in the experiment with FEV, with CRX and with ELF5 were 1.04, 0.686 and 1.05, respectively.

For AACGGT, the results for the binding signal with FEV, with CRX and with ELF5 were 0.901, 0.816 and 0.981, respectively.

With GTGGTC, the values for the binding signal with FEV, in the experiment with CRX and in the experiment with ELF5 were 0.784, 0.566 and 0.859, respectively.

As for GAATGA, the binding signal with FEV amounted to 0.929; with CRX it was 0.921; with ELF5, 0.944.

With CACGGC, the binding signal with FEV is 0.944; in the experiment with CRX, 0.811; with ELF5, 0.939.

For the sequence GTTGGT, the binding signal was 0.799 with FEV, 0.703 with CRX and 0.905 in the experiment with ELF5.

Consider GCCCTG, for which the binding signal came out at 0.915 with FEV, 0.807 with CRX and 0.887 with ELF5.

Take GTGGTA: the binding signal in the experiment with FEV worked out at 0.909; with CRX, 0.785; in the experiment with ELF5 it was 0.89.

As to CAACCT, the binding signal in the experiment with FEV was determined as 1.21; with CRX, 0.938; in the experiment with ELF5 it was 1.2.

With AGTCTC, the binding signal with FEV was 0.942; in the experiment with CRX it was 0.946; with ELF5, 0.997.

Regarding TTTTAG, the binding signal with FEV stood at 1.14; in the experiment with CRX, 1.48; with ELF5, 1.06.

With AGATGT, the binding signal stood at 0.852 with FEV, 0.91 with CRX and 0.955 in the experiment with ELF5.

As for ACAAGT, the results for the binding signal with FEV, with CRX and with ELF5 were 0.864, 0.802 and 0.921, respectively.

Regarding GAATGT, the values for the binding signal in the experiment with FEV, in the experiment with CRX and in the experiment with ELF5 were 1.07, 1.02 and 1.08, respectively.

On to ACTTGA, for which the binding signal was found to be 0.888 with FEV, 0.937 with CRX and 0.981 with ELF5.

Regarding AGAATG, the binding signal with FEV turned out to be 0.907; in the experiment with CRX it was 1.09; with ELF5, 0.979.

Turning to CATGCG, the results for the binding signal with FEV, with CRX and with ELF5 were 0.968, 0.916 and 0.985, respectively.

TGTTAG: the binding signal in the experiment with FEV was determined as 0.928; in the experiment with CRX it was 0.87; in the experiment with ELF5, 0.919.

Turning to GCTTAA, the binding signal with FEV was 0.947; with CRX, 3.04; with ELF5 it was 0.983.

With AGGCAC, the binding signal with FEV worked out at 0.884; with CRX, 0.685; with ELF5 it was 0.82.

Turning to TCGTCG, the values for the binding signal with FEV, with CRX and with ELF5 were 0.885, 0.781 and 0.851, respectively.

As for CGTAGC, the binding signal stood at 0.978 with FEV, 0.843 in the experiment with CRX and 1.05 in the experiment with ELF5.

For GCGATC, the figures for the binding signal with FEV, with CRX and with ELF5 were 0.944, 1.03 and 0.919, respectively.

On to TCCGAG, for which the binding signal was 0.922 with FEV, 0.891 with CRX and 0.965 with ELF5.

As to GCCAGA, the binding signal stood at 0.715 with FEV, 0.716 with CRX and 0.64 with ELF5.

On to GTGGTT, for which the figures for the binding signal with FEV, in the experiment with CRX and with ELF5 were 0.876, 0.708 and 0.985, respectively.

As for TGAACG, the binding signal with FEV was 0.896; in the experiment with CRX, 0.823; with ELF5, 0.886.

For the sequence CAATGA, the binding signal in the experiment with FEV is 0.983; with CRX, 0.801; in the experiment with ELF5, 0.922.

Regarding GACCGC, the values for the binding signal with FEV, with CRX and with ELF5 were 0.962, 0.739 and 0.943, respectively.

On to CGAGGT, for which the figures for the binding signal with FEV, with CRX and with ELF5 were 0.846, 0.731 and 0.859, respectively.

Take TGCCCA: the figures for the binding signal with FEV, with CRX and with ELF5 were 1.21, 0.916 and 1.01, respectively.

For the sequence ATAACC, the binding signal in the experiment with FEV is 1.22; with CRX, 1.27; with ELF5, 1.16.

Regarding GACTCG, the binding signal came out at 0.835 with FEV, 0.756 with CRX and 0.8 with ELF5.

Turning to TGATAG, the binding signal in the experiment with FEV came out at 0.942; with CRX it was 1.01; with ELF5 it was 0.963.
